This passage reports Leukemia, Colorectal and Melanoma results from patent US20190374627A1, “TARGET PEPTIDES FOR CANCER THERAPY AND DIAGNOSTICS” (priority 2016, published 2019).

Parameters in all cases: key: The presence of phosphopeptides in previously analyzed samples including leukemia, colorectal cancer, melanoma, ovarian cancer, breast cancer, and esophageal cancer is indicated by ✓
In one data set the test system is leukemia. The data set is described as follows: Presence of the phosphopeptide in previously analyzed leukemia samples.
Another data set relates to colorectal cancer. The data set is described as follows: Presence of the phosphopeptide in previously analyzed colorectal cancer samples.
In a further data set the test system is melanoma. As to the kind of experiment: Presence of the phosphopeptide in previously analyzed melanoma samples.

For “45 (RQASIELPSM; (4)...(4) The amino acid at this position is optionally phosphorylated; listed as Homo sapiens) [compound 45]”, the Leukemia result in the data set with leukemia is “✓”. The Colorectal entry in the data set on colorectal cancer is listed as “✓”.

On to “93 (GPRSASLLSL; (6)...(6) The amino acid at this position is optionally phosphorylated; listed as Homo sapiens) [compound 93]”, for which the Leukemia entry with leukemia is “✓”. Turning to “98 (KPPYRSHSL; (8)...(8) The amino acid at this position is optionally phosphorylated; listed as Homo sapiens) [compound 98]”, the Leukemia entry in the data set on leukemia is listed as “✓”. On to “154 (RPRAATVVA; (6)...(6) The amino acid at this position is optionally phosphorylated; listed as Homo sapiens) [compound 154]”, for which the Leukemia entry in the data set on leukemia is recorded as “✓”. Besides, in the data set with colorectal cancer, the Colorectal result is “✓”. In the case of “157 (RPRDTRRISL; (5)...(5) The amino acid at this position is optionally phosphorylated; listed as Homo sapiens) [compound 157]”, the Leukemia entry in the data set with leukemia is given as “✓”. For “171 (RPRSLEVTI; (4)...(4) The amino acid at this position is optionally phosphorylated; listed as Homo sapiens) [compound 171]”, the Leukemia result in the data set with leukemia is “✓”. On to “173 (RPRSMTVSA; (4)...(4) The amino acid at this position is optionally phosphorylated; listed as Homo sapiens) [compound 173]”, for which, in the data set with leukemia, the Leukemia entry is on record as “✓”. Moreover, the Colorectal result in the data set with colorectal cancer is on record as “✓”. With “175 (RPRSPAARL; (4)...(4) The amino acid at this position is optionally phosphorylated; listed as Homo sapiens) [compound 175]”, in the data set on leukemia, the Leukemia result is “✓”. Consider “190 (RPSSPALYF; (4)...(4) The amino acid at this position is optionally phosphorylated; listed as Homo sapiens) [compound 190]”, for which the Leukemia entry with leukemia is recorded as “✓”. “207 (SPGLARKRSL; (9)...(9) The amino acid at this position is optionally phosphorylated; listed as Homo sapiens) [compound 207]”: the Leukemia entry with leukemia is listed as “✓”. Take “336 (SVRRSVLMK; (5)...(5) The amino acid at this position is optionally phosphorylated; listed as Homo sapiens) [compound 336]”: in the data set on colorectal cancer, the Colorectal entry is “✓”. The Melanoma result in the data set with melanoma is listed as “✓”. “350 (KEMSPTRQL; (4)...(4) The amino acid at this position is optionally phosphorylated; listed as Homo sapiens) [compound 350]”: the Colorectal entry in the data set with colorectal cancer is reported as “✓”. Further, the Melanoma entry in the data set with melanoma was “✓”. On to “370 (YEGSPIKV; (4)...(4) The amino acid at this position is optionally phosphorylated; listed as Homo sapiens) [compound 370]”, for which the Leukemia result in the data set with leukemia was “✓”.

“388 (SIDSPQKL; (4)...(4) The amino acid at this position is optionally phosphorylated; listed as Homo sapiens) [compound 388]”: the Colorectal entry with colorectal cancer is “✓”. For the same substance, in the data set on melanoma, the Melanoma result is recorded as “✓”. As for “392 (RAHSEPLAL; (4)...(4) The amino acid at this position is optionally phosphorylated; listed as Homo sapiens) [compound 392]”, the Leukemia result in the data set on leukemia was “✓”. Take “411 (KLSGLSF; (5)...(5) The amino acid at this position is optionally phosphorylated; listed as Homo sapiens) [compound 411]”: in the data set on leukemia, the Leukemia entry is reported as “✓”.
